The list shows a part of the results.

By UniProt entry, the sequences of proteins in these tests, tags left out. Where a name states a change or a piece, a line headed by the entry shows the natural chain unless it says otherwise.
UniProt Q9UJT2: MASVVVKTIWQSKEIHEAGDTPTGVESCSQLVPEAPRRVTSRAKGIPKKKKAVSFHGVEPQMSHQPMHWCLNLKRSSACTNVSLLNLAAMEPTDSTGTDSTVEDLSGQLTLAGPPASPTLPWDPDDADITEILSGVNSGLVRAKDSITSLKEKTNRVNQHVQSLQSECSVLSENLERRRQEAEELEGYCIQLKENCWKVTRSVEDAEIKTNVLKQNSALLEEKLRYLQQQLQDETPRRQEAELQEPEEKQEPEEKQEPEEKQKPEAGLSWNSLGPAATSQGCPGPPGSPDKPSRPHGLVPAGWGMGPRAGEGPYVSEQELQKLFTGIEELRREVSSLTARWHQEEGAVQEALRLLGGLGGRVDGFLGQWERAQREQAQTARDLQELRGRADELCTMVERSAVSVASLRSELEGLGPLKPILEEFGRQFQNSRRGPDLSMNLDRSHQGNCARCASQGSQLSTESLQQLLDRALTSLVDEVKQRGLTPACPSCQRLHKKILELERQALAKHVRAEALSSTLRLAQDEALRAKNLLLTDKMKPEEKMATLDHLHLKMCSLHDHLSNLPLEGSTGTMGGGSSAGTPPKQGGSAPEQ
UniProt P14373: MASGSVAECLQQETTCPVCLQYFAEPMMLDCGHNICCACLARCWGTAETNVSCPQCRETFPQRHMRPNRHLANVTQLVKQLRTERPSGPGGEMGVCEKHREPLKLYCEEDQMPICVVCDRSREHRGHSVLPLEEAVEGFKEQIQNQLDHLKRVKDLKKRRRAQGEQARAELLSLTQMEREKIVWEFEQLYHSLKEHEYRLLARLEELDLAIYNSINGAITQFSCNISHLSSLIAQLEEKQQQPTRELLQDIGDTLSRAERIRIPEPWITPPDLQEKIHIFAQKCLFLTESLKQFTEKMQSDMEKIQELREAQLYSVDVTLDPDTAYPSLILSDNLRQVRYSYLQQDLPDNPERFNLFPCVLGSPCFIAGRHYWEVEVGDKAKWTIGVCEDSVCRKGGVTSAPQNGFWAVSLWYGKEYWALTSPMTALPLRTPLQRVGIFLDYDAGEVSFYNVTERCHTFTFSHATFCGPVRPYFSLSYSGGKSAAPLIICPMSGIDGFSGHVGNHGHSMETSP
UniProt Q96GJ1: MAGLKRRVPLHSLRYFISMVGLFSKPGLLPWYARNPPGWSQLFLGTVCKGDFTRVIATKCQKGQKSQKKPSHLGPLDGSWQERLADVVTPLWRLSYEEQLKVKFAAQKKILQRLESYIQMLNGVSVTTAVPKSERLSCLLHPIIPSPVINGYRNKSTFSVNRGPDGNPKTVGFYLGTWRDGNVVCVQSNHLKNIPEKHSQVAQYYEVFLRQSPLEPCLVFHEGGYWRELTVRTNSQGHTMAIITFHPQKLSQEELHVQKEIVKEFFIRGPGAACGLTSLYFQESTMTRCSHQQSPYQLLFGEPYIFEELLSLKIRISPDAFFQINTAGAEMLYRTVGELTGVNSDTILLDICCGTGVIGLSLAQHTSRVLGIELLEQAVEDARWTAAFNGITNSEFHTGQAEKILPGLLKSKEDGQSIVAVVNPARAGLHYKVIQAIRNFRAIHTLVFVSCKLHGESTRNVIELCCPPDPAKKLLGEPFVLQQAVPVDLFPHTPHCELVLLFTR
UniProt Q92574: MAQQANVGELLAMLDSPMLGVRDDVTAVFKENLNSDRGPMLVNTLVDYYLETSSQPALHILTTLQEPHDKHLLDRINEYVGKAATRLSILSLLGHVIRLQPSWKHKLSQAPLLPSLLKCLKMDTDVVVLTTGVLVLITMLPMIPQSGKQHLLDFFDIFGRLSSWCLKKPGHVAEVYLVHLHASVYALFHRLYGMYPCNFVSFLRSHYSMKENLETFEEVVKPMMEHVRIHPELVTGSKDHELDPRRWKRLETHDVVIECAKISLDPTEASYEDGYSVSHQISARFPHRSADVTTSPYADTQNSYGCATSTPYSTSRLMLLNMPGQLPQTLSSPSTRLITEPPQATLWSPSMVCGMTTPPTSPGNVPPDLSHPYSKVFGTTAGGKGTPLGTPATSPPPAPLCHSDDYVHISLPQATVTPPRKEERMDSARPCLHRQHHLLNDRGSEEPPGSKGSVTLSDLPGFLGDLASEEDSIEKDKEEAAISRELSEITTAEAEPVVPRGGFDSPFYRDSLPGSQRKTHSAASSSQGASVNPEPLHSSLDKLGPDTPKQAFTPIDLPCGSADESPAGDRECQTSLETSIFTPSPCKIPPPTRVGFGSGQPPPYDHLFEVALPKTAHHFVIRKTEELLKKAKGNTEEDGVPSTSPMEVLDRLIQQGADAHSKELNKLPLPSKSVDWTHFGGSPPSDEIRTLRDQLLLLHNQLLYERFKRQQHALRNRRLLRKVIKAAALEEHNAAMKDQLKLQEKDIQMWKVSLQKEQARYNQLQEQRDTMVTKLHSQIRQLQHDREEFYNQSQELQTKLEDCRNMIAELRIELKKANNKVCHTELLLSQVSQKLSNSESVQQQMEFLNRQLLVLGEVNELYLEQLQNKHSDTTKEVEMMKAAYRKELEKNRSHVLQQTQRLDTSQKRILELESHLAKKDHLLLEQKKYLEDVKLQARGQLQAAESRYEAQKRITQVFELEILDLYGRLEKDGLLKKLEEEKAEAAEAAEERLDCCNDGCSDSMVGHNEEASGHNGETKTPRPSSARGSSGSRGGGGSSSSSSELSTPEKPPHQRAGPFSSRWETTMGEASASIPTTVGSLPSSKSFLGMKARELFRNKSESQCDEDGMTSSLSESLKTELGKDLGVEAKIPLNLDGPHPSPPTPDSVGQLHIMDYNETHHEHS
UniProt Q8TD43: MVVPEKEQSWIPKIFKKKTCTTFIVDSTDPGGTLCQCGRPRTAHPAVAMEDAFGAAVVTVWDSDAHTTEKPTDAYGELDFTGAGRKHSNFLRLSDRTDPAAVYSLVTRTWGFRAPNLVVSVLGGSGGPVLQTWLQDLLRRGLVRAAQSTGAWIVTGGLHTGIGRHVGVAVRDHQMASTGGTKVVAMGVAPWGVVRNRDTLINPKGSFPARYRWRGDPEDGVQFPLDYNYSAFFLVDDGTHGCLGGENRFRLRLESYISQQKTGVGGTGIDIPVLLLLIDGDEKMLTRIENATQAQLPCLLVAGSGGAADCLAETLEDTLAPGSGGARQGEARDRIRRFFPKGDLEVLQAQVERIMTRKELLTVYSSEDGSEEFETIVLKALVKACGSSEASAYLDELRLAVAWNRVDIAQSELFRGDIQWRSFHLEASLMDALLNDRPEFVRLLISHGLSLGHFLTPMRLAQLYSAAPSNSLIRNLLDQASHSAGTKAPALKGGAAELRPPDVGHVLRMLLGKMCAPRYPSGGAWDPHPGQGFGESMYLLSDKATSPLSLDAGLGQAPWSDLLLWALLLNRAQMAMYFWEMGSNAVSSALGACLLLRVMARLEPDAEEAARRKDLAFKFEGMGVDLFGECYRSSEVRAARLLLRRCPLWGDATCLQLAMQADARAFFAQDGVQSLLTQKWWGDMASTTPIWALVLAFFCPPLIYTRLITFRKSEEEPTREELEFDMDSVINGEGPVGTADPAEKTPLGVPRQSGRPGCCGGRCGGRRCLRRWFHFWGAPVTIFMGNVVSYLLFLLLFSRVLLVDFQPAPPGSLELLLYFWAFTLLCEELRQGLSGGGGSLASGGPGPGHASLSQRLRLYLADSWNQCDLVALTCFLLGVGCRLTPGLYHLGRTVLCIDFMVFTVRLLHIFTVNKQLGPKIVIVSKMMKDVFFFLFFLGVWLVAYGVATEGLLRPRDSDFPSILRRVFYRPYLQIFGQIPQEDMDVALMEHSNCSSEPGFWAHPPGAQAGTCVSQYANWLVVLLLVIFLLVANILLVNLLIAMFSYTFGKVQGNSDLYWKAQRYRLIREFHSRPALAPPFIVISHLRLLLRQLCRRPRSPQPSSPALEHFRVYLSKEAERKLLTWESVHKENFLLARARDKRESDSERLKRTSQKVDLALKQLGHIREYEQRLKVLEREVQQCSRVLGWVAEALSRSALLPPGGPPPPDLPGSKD
UniProt O43715: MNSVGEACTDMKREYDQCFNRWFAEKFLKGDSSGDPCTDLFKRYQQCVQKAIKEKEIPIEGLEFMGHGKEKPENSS
UniProt O75157: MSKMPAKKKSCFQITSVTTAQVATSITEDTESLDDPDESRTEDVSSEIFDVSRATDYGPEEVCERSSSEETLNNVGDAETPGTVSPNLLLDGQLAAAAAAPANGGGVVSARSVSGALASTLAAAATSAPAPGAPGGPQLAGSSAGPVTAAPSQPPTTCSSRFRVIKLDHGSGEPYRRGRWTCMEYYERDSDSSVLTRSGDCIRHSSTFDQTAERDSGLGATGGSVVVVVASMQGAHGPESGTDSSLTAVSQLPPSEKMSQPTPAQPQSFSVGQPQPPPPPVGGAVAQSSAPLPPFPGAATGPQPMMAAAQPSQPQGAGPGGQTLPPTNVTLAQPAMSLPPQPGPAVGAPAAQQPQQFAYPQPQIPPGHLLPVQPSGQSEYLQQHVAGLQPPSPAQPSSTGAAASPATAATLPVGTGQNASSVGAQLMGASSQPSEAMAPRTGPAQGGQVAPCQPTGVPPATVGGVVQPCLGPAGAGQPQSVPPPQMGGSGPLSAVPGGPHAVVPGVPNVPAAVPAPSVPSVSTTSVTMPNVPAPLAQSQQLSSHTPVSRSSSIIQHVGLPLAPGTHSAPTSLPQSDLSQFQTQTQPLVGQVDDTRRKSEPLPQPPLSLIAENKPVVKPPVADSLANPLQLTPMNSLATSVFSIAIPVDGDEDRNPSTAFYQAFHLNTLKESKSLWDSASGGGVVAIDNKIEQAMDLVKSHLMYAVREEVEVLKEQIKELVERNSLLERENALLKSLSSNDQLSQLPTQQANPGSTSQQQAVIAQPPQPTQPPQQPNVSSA
UniProt Q5BVD1: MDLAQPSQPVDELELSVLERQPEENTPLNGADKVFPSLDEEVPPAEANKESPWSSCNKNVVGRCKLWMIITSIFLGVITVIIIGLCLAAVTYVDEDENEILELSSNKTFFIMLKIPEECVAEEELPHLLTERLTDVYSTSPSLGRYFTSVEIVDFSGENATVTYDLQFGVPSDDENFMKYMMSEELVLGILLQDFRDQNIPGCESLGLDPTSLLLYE
UniProt O95900: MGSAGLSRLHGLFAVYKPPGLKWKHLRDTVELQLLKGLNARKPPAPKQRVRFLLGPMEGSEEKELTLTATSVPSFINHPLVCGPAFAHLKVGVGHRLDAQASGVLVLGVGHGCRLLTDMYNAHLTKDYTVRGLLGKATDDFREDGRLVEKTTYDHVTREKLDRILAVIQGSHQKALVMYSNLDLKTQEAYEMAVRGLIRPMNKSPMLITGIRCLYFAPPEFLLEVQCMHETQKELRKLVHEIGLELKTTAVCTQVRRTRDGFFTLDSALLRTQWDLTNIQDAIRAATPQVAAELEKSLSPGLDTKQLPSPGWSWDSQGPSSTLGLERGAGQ
UniProt Q13114: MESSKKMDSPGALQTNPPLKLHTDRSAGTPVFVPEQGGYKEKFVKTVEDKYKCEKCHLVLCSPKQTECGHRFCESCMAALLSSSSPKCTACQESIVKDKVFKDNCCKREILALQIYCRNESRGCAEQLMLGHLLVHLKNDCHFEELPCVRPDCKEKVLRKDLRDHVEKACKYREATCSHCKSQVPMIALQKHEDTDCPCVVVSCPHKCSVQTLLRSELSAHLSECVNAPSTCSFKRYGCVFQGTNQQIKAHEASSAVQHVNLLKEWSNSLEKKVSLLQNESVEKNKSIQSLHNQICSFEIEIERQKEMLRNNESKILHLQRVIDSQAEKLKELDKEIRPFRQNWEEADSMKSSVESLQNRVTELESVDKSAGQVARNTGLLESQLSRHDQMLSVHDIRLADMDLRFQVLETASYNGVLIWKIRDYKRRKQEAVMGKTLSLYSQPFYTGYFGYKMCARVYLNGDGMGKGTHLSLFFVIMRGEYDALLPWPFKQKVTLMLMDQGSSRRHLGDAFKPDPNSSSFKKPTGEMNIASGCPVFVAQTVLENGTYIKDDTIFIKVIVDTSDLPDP
UniProt Q6PJ69: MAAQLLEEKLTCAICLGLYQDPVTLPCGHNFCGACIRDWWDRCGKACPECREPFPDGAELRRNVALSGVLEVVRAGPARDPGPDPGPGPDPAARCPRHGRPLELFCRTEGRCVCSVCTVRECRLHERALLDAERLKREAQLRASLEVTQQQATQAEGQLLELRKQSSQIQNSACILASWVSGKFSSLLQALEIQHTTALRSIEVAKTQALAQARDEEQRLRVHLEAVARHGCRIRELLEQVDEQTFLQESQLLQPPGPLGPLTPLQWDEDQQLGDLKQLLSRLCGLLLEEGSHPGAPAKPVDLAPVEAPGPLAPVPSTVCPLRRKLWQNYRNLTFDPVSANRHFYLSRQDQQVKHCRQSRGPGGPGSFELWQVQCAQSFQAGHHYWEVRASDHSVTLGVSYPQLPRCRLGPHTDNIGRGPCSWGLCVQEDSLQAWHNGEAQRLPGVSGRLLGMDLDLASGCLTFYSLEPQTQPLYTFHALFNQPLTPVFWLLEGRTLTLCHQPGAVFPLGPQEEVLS

Compound in the first test: CN1CC[C@H](c2c(O)cc(O)c3c(=O)cc(-c4ccccc4Cl)oc23)[C@H](O)C1 [alvocidib]
The test can be described thus: log2 fold change, soluble protein after heating vs DMSO (PISA); higher = thermal stabilisation; K562 lysate, 10 uM; active = over 0.2 and 3.5 SD of the protein, either way, in both replicates (recomputed). The gist of the method:
(§1)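 K562 pellets were dounce-homogenised in PBS pH 7.4 containing 1 mM MgCl2, and the crude extract, at 1 mg/mL protein, was exposed to 10 μM compound for 30 min. Aliquots were heated for 3 min across 48°C-58°C, pooled, brought to 0.5% NP-40 at 4°C and spun at 21,000xg for 90 min, with the supernatant taken as soluble protein. TMTpro 16plex LC-MS/MS with equalised channel sums quantified that protein. Values are log-two fold changes in thermal stability relative to solvent controls, taken from duplicates.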
As to TSTD2 (UniProt Q5T7W7), the log2 fold change is inactive: 0.064.
The same measure, in the same setting: as for TTC21B (UniProt Q7Z4L5), the figure is inactive: 0.013; as for TRPM7 (UniProt Q96QT4), inactive: 0.055.
With TRAF7 (UniProt Q6Q0C0), the log2 fold change was inactive: 0.058.
TSKS (UniProt Q9UJT2): the log2 fold change was inactive: 0.
The same measure, in the same setting: with TRIOBP (UniProt Q9H2D6) the figure was inactive: 0.019.
Still for that read-out and setting: as for TSPAN3 (UniProt O60637), the figure is inactive: 0.193; as for TRIM27 (UniProt P14373), inactive: 0.046; as for TRIO (UniProt O75962), inactive: 0.004.
Same read-out and setting: with TRMT10B (UniProt Q6PF06) the figure was inactive: -0.129.

Compound in another test: CN1CCc2c(c3ccccc3n2Cc2ccc(C(=O)NO)cc2)C1 [Tubastatin A]
The description is as above. The gist of the method:
as §1
For the target TRMT2B (UniProt Q96GJ1), the log2 fold change is inactive: -0.026.
As to TSC1 (UniProt Q92574), the log2 fold change is inactive: -0.072.
As for TTC26, the log2 fold change is inactive: 0.091.
The same measure, in the same setting: as for TTLL12 (UniProt V9GY16), the figure is inactive: 0.177; as for TRAF3IP2 (UniProt O43734), inactive: 0.039; as for TRIM58 (UniProt Q8NG06), inactive: -0.003.
The same measure, in the same setting: as for TSPYL1 (UniProt Q9H0U9), the figure is inactive: 0.18; as for TRRAP (UniProt Q9Y4A5), inactive: -0.048.
Same read-out and setting: as for TRPM4 (UniProt Q8TD43), the figure is inactive: 0.053.
For TRNT1 (UniProt Q96Q11), the log2 fold change was inactive: -0.019.
Take TRIP10 (UniProt Q15642): the log2 fold change was inactive: -0.012.
The same measure, in the same setting: with TRIAP1 (UniProt O43715) the figure was inactive: 0.147; with TSC22D2 (UniProt O75157), inactive: 0.037; with TRPT1 isoform 4 (UniProt Q86TN4), inactive: 0.112.
Regarding TRIP10 isoform 2 (UniProt Q15642), the log2 fold change is inactive: -0.056.
The same measure, in the same setting: as for TSEN15, A0A2U3TZM3, the figure is inactive: 0.174; as for TTMP isoform 3 (UniProt Q5BVD1), inactive: 0.24.
As for TRUB2 (UniProt O95900), the log2 fold change is inactive: -0.058.
Same read-out and setting: with TRAF3 (UniProt Q13114) the figure was inactive: 0.061.
The same measure, in the same setting: as for TRIM65 (UniProt Q6PJ69), the figure is inactive: 0.025.
TSTD2 (UniProt Q5T7W7): the log2 fold change is inactive: -0.106.
On the same count and under the same terms, as for TRPM7 (UniProt Q96QT4), the figure is inactive: -0.001; as for TRAF7 (UniProt Q6Q0C0), inactive: -0.008; as for TSKS (UniProt Q9UJT2), inactive: -0.136.
Consider TRIOBP (UniProt Q9H2D6), for which the log2 fold change was inactive: 0.013.
On the same count and under the same terms, with TSPAN3 (UniProt O60637) the figure was inactive: -0.081.
Still for that read-out and setting: with TRIM27 (UniProt P14373) the figure was inactive: -0.066; with TRMT10B (UniProt Q6PF06), inactive: -0.218.

The record behind these values is the supplement of paper PMC10849652.
